Laboratory results reported in PubChem BioAssay AID272 (DTP/NCI, 2004).
The list does not hold the whole screen: it is rich in T/C values a quarter to a half above the control, in often repeated tests (any T/C) and in doses without a T/C. Further doses and runs are listed elsewhere. T/C gives the treated animals as a percentage of the vehicle group. Schedule codes are those of the source, read here as Q, the interval in days (D) or hours (H), X, the number of doses. Some doses have a count of surviving animals in place of a T/C: the source files T/C as zero there, which appears to mark a toxic dose or a test without result, not a measured value. Some survivor counts are full or nearly so, which does not show that the dose was tolerated: survival well below the control is almost never listed, so the zero probably covers shortened survival too. Survivors were counted at the toxicity check, usually on the fifth day, unless a day is given; later deaths do not show. Some entries were tested several times; the results are listed from low to high. For survival time, this PubChem deposit counts one and a half times the control or more as active, and values a quarter to a half above the control carry no call in these data; other NCI protocols may use other cut-offs.

Test system: Lewis lung carcinoma i.m., BDF1 mice, T/C %
Experiment: NCI In Vivo Anticancer Drug Screen. Data for tumor model Lewis Lung Carcinoma (intramuscular) in B6D2F1 (BDF1) mice
How it was run: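 Value is the ratio of a treated-group measurement (T) to the matching vehicle-control measurement (C), using either survival or tumour size in mice bearing transplanted tumours.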

[1] = T/C endpoint: median survival time, dose: 50.0 mg/kg/injection, schedule: Q01DX011 (ip), vehicle: saline, higher T/C = longer survival
[2] = T/C endpoint: median survival time, dose: 6.25 mg/kg/injection, schedule: Q01DX011 (ip), vehicle: saline, higher T/C = longer survival
[3] = T/C endpoint: median survival time, dose: 25.0 mg/kg/injection, schedule: Q01DX011 (ip), vehicle: saline, higher T/C = longer survival
[4] = T/C endpoint: median survival time, dose: 50.0 mg/kg/injection, schedule: Q01DX011 (ip), vehicle: saline with Tween-80, higher T/C = longer survival

Nc1cc(S(N)(=O)=O)ccc1SSc1ccc(S(N)(=O)=O)cc1N
survivor count (T/C endpoint: mean tumor weight (est.), dose: 250.0 mg/kg/injection, schedule: Q01DX011 (ip), vehicle: saline with Tween-80, higher T/C = larger tumour): 4 of 8
survivor count (T/C endpoint: median survival time, dose: 250.0 mg/kg/injection, schedule: Q01DX011 (ip), vehicle: saline with Tween-80, higher T/C = longer survival): 4 of 8

Clc1ccc(C(c2ccccc2Cl)C(Cl)Cl)cc1 (stereo not given)
survivor count (T/C endpoint: median survival time, dose: 200.0 mg/kg/injection, schedule: Q01DX011 (ip), vehicle: Klucel (hydroxypropylcellulose) (HPC), higher T/C = longer survival): 6 of 8
survivor count (T/C endpoint: median survival time, dose: 400.0 mg/kg/injection, schedule: Q01DX011 (ip), vehicle: Klucel (hydroxypropylcellulose) (HPC), higher T/C = longer survival): 5 of 8
survivor count (T/C endpoint: median survival time, dose: 800.0 mg/kg/injection, schedule: Q01DX011 (ip), vehicle: Klucel (hydroxypropylcellulose) (HPC), higher T/C = longer survival): 8 of 8

CC(=O)Nc1cc(F)c([N+](=O)[O-])cc1[N+](=O)[O-]
T/C (T/C endpoint: median survival time, dose: 0.63 mg/kg/injection, schedule: Q01DX011 (ip), vehicle: saline with Tween-80, higher T/C = longer survival): 128 % of control

Cc1c(N)nc(C(CC(N)=O)NCC(N)C(N)=O)nc1C(=O)NC(C(=O)NC(C)C(O)C(C)C(=O)NC(C(=O)NCCc1nc(-c2nc(C(=O)NCCC[S+](C)C)cs2)cs1)C(C)O)C(OC1OC(CO)C(O)C(O)C1OC1OC(CO)C(O)C(OC(N)=O)C1O)c1cnc[nH]1 (stereo not given)
T/C (T/C endpoint: median survival time, dose: 2.3 mg/kg/injection, schedule: Q01DX011 (ip), vehicle: saline, higher T/C = longer survival): 133 % of control
T/C (T/C endpoint: median survival time, dose: 3.9 mg/kg/injection, schedule: Q01DX011 (ip), vehicle: saline, higher T/C = longer survival): 141 % of control
survivor count (T/C endpoint: median survival time, dose: 30.0 mg/kg/injection, schedule: Q01DX011 (ip), vehicle: saline, higher T/C = longer survival): 3 of 8
survivor count [1]: 0 of 8

COc1ccc([I+]c2ccc(OC)cc2)cc1
survivor count [2]: 0 of 8 and 1 of 8
survivor count (T/C endpoint: median survival time, dose: 12.5 mg/kg/injection, schedule: Q01DX011 (ip), vehicle: saline, higher T/C = longer survival): 0 of 8
survivor count [3]: 0 of 8
survivor count [1]: 0 of 8

O=C1C=C(N2CC2)c2ccccc2C1=O
survivor count (T/C endpoint: mean tumor weight (est.), dose: 20.0 mg/kg/injection, schedule: Q01DX011 (ip), vehicle: saline, higher T/C = larger tumour): 4 of 8
survivor count (T/C endpoint: median survival time, dose: 20.0 mg/kg/injection, schedule: Q01DX011 (ip), vehicle: saline, higher T/C = longer survival): 4 of 8
survivor count (T/C endpoint: median survival time, dose: 40.0 mg/kg/injection, schedule: Q01DX011 (ip), vehicle: saline, higher T/C = longer survival): 0 of 8

CC(=O)[O][Hg][c]1s[c]([Hg][O]C(C)=O)[c]([Hg][O]C(C)=O)[c]1[Hg][O]C(C)=O
survivor count (T/C endpoint: mean tumor weight (est.), dose: 25.0 mg/kg/injection, schedule: Q01DX011 (ip), vehicle: saline, higher T/C = larger tumour): 4 of 8
survivor count [2]: 6 of 8
survivor count [3]: 4 of 8
survivor count [1]: 0 of 8

CCC[CH2][Sn](=[S])[CH2]CCC
survivor count [4]: 0 of 8

Cc1nc(N)nc(N)c1-c1ccc(Cl)c(Cl)c1
T/C (T/C endpoint: mean tumor weight, dose: 4.0 mg/kg/injection, schedule: Q04DX004 (ip), vehicle: saline, evaluated on day 20, higher T/C = larger tumour): 127 % of control
T/C (T/C endpoint: mean tumor weight, dose: 8.0 mg/kg/injection, schedule: Q04DX004 (ip), vehicle: saline, evaluated on day 20, higher T/C = larger tumour): 128 % of control
T/C (T/C endpoint: median survival time, dose: 6.0 mg/kg/injection, schedule: Q04DX004 (ip), vehicle: saline, higher T/C = longer survival): 129 % of control

CC(=O)c1ccc(Oc2ccc(/C(C)=N\N=C(N)N)cc2)cc1
survivor count (T/C endpoint: median survival time, dose: 25.0 mg/kg/injection, schedule: Q01DX011 (ip), vehicle: saline with Tween-80, higher T/C = longer survival): 8 of 8
survivor count [4]: 0 of 8
survivor count (T/C endpoint: median survival time, dose: 100.0 mg/kg/injection, schedule: Q01DX011 (ip), vehicle: saline with Tween-80, higher T/C = longer survival): 0 of 8

N=c1ccn2c(n1)OC1C(OP(=O)(O)O)C(CO)OC12 (stereo not given)
survivor count (T/C endpoint: mean tumor weight (est.), dose: 400.0 mg/kg/injection, schedule: Q01DX011 (oral), vehicle: water, higher T/C = larger tumour): 5 of 8
survivor count (T/C endpoint: mean tumor weight (est.), dose: 800.0 mg/kg/injection, schedule: Q01DX011 (oral), vehicle: water, higher T/C = larger tumour): 3 of 8
survivor count (T/C endpoint: median survival time, dose: 400.0 mg/kg/injection, schedule: Q01DX011 (oral), vehicle: water, higher T/C = longer survival): 5 of 8
survivor count (T/C endpoint: median survival time, dose: 800.0 mg/kg/injection, schedule: Q01DX011 (oral), vehicle: water, higher T/C = longer survival): 3 of 8

CC/C(=C(/CC)c1ccc(O)cc1)c1ccc(O)cc1
survivor count (T/C endpoint: mean tumor weight, dose: 200.0 mg/kg/injection, schedule: Q01DX011 (ip), vehicle: steroid suspending solution, higher T/C = larger tumour): 5 of 8
survivor count (T/C endpoint: median survival time, dose: 50.0 mg/kg/injection, schedule: Q01DX011 (ip), vehicle: water, higher T/C = longer survival): 10 of 10
survivor count (T/C endpoint: median survival time, dose: 100.0 mg/kg/injection, schedule: Q01DX011 (ip), vehicle: steroid suspending solution, higher T/C = longer survival): 6 of 8
survivor count (T/C endpoint: median survival time, dose: 200.0 mg/kg/injection, schedule: Q01DX011 (ip), vehicle: steroid suspending solution, higher T/C = longer survival): 0 of 8 and 5 of 8
survivor count (T/C endpoint: median survival time, dose: 200.0 mg/kg/injection, schedule: Q01DX011 (ip), vehicle: water, higher T/C = longer survival): 3 of 10 and 6 of 10
survivor count (T/C endpoint: median survival time, dose: 400.0 mg/kg/injection, schedule: Q01DX011 (ip), vehicle: steroid suspending solution, higher T/C = longer survival): 0 of 8
survivor count (T/C endpoint: median survival time, dose: 400.0 mg/kg/injection, schedule: Q01DX011 (ip), vehicle: water, higher T/C = longer survival): 0 of 10
survivor count (T/C endpoint: median survival time, dose: 800.0 mg/kg/injection, schedule: Q01DX011 (ip), vehicle: steroid suspending solution, higher T/C = longer survival): 0 of 8
